Data source: PubChem BioAssay AID602196 (INSERM, 2012)

Test: 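Modifiers of cisplatin sensitivity in A549 cells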
System: human A549 lung cancer cells
Reagent: siRNA pair against human genes
Timing: 48 h transfection before cisplatin; time from cisplatin to read-out not stated
Conditions: cisplatin at a dose killing half of control-siRNA cells; exact dose and duration not given
Measurement: 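Shift in cisplatin death relative to control siRNA, from -50 (all cells die) to +50 (no cells die); siRNAs harmful on their own scored 0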
Reading the numbers: two-siRNA summed score (-2 to +2): higher = both siRNAs protect from cisplatin killing; -2 means both sensitise; mean protection from cisplatin (shift in death) and protection from cisplatin (shift in death), siRNA C and protection from cisplatin (shift in death), siRNA D: higher = protection from cisplatin killing
Active means: 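siRNAs harmful alone (LDH or WST-1) get 0; others get +1 for less and -1 for more cisplatin killing; genes are active when the two siRNAs give the same sign, summing to ±2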
Calls: active = both siRNAs shift cisplatin killing the same way; inactive = no consistent shift, or siRNA harmful alone
The deposit covers about 23,000 reagents; below is a part drawn at random. 455 of all reagents (2%) count as active. 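Active includes both protection and sensitisation; some change values fall well beyond the stated -50 to +50 range.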 A number with no mark means an inactive call. Reagents against one gene are numbered here. Not stated in the record: the amount of reagent.

two-siRNA summed score (-2 to +2) | mean protection from cisplatin (shift in death) (%) | protection from cisplatin (shift in death), siRNA C (%) | protection from cisplatin (shift in death), siRNA D (%) | target gene | reagent
0 | 2.2 | -3 | 7.4 | LOC389319 | 1
0 | 1.3 | 9.4 | -6.7 | PDS5A | 1
1 | 8.6 | -2.9 | 20.1 | LOC441118 | 1
0 | -5.4 | -14.3 | 3.6 | PRR15 | 1
0 | 9.4 | 10.6 | 8.3 | RXFP1 | 1
-2 (active) | -14.3 | -19.8 | -8.9 | FPR1 | 1
-1 | -18.8 | -28.6 | -9 | KRT8 | 1
0 | 3.6 | -5.4 | 12.7 | TCF20 | 1
0 | 7.4 | 8 | 6.7 | LOC401007 | 1
0 | -5.5 | -1.1 | -10 | LIN37 | 1
1 | 7.1 | -1.8 | 15.9 | TMEM45B | 1
0 | 6.4 | 1.3 | 11.4 | SUSD1 | 1
0 | -0.4 | -4.8 | 4 | GABRR2 | 1
-1 | -5 | -16.7 | 6.8 | CNOT2 | 1
-2 (active) | -35.1 | -31.3 | -39 | KCNE4 | 1
1 | 8.1 | -4 | 20.1 | WASF2 | 1
0 | -2.1 | -4.5 | 0.4 | LOC401638 | 1
0 | -1.4 | -3.7 | 0.9 | ZNF549 | 1
1 | 4.1 | 18.5 | -10.3 | ZNF321P | 1
0 | -3.8 | -5.5 | -2.2 | HAND1 | 1
0 | 2.1 | 7.1 | -2.8 | LOC399876 | 1
-1 | -14.3 | -11.7 | -16.9 | CNTLN | 1
1 | 8.8 | 18.1 | -0.5 | VPS13D | 1
0 | -1.4 | -5 | 2.3 | NPY | 1
0 | 11.5 | 10.1 | 12.9 | LRRC49 | 1

Quoted from the entries so far for reference:
two-siRNA summed score (-2 to +2) | mean protection from cisplatin (shift in death) (%) | protection from cisplatin (shift in death), siRNA C (%) | protection from cisplatin (shift in death), siRNA D (%) | target gene | reagent
0 | 3.6 | -5.4 | 12.7 | TCF20 | 1
0 | 7.4 | 8 | 6.7 | LOC401007 | 1
0 | -5.5 | -1.1 | -10 | LIN37 | 1
1 | 7.1 | -1.8 | 15.9 | TMEM45B | 1
0 | 6.4 | 1.3 | 11.4 | SUSD1 | 1
0 | -0.4 | -4.8 | 4 | GABRR2 | 1
-1 | -5 | -16.7 | 6.8 | CNOT2 | 1
-2 (active) | -35.1 | -31.3 | -39 | KCNE4 | 1
1 | 8.1 | -4 | 20.1 | WASF2 | 1
0 | -2.1 | -4.5 | 0.4 | LOC401638 | 1
0 | -1.4 | -3.7 | 0.9 | ZNF549 | 1
1 | 4.1 | 18.5 | -10.3 | ZNF321P | 1

The listing continues.
two-siRNA summed score (-2 to +2) | mean protection from cisplatin (shift in death) (%) | protection from cisplatin (shift in death), siRNA C (%) | protection from cisplatin (shift in death), siRNA D (%) | target gene | reagent
0 | -3 | 4.1 | -10.1 | CEBPZ | 1
0 | 0.1 | 0.4 | -0.3 | N4BP2 | 1
-1 | -12.1 | -35.1 | 10.8 | USP8 | 1
1 | 8.4 | 16.3 | 0.6 | CPB1 | 1
0 | -0.1 | 7.4 | -7.6 | PPP1R17 | 1
0 | 21.4 | -0.8 | 43.6 | OR11H4 | 1
0 | 7 | 1.8 | 12.3 | BCAS1 | 1
1 | 20.2 | 20.4 | 20.1 | LOC401513 | 1
0 | 7.9 | 6.2 | 9.6 | SPANXN4 | 1
0 | 10.4 | 17.8 | 3 | ARHGEF18 | 1
0 | 6.7 | 14.3 | -0.9 | JMJD7-PLA2G4B | 1
0 | 6.7 | 5.9 | 7.5 | LOC442099 | 1
1 | 3.7 | -6.2 | 13.5 | LOC441547 | 1
0 | 0.3 | -10.4 | 11 | TCEAL7 | 1
-1 | -26.3 | -14.6 | -38 | PLAAT3 | 1
0 | 5.4 | 2.8 | 8 | LOC441212 | 1
0 | 1.9 | 2.9 | 0.8 | SLC38A3 | 1
0 | 8.9 | 12 | 5.9 | LOC389394 | 1
0 | 7.5 | 11.3 | 3.7 | THAP7 | 1
0 | -3.8 | -23.6 | 16 | LOC149478 | 1
0 | 18.3 | 20.3 | 16.3 | KRT6C | 1
0 | 18.7 | 18.2 | 19.3 | KRT6C | 2
0 | 6.8 | 15.8 | -2.3 | LOC137829 | 1
1 | 6.3 | -5.4 | 18.1 | LOC440174 | 1
0 | -2.3 | 1.8 | -6.4 | SLC22A17 | 1
0 | 10.5 | 10.2 | 10.8 | NHLRC2 | 1
0 | 8.8 | -7.6 | 25.1 | CAVIN2 | 1
0 | 11 | -4.9 | 26.9 | ERICH2 | 1
0 | -6.5 | 6.5 | -19.6 | GRIA2 | 1
0 | 9 | 8.5 | 9.6 | ZNF584 | 1
0 | -8.4 | -14.4 | -2.3 | AHCY | 1
0 | 5.7 | 4.4 | 7.1 | MYH10 | 1
0 | -2.8 | 4.7 | -10.3 | MAGEC2 | 1
0 | 11.9 | 18 | 5.8 | ALDH16A1 | 1
2 (active) | 20.5 | 25.3 | 15.7 | LCE1C | 1
0 | -3.7 | 1.6 | -9 | LOC391360 | 1
0 | 6.4 | 0.6 | 12.3 | KCNJ13 | 1
0 | 2.5 | 8.8 | -3.8 | FLJ11539 | 1
0 | 6.7 | 7.2 | 6.3 | LOC440457 | 1
1 | 8.6 | 17.3 | -0.1 | CLDN1 | 1
0 | 1.6 | 1.1 | 2.2 | SPG7 | 1
0 | 10.8 | 22.3 | -0.8 | LOC440972 | 1
1 | 10.9 | 18.6 | 3.1 | PHETA2 | 1
1 | 5.7 | -3.4 | 14.8 | URB2 | 1
0 | -6.3 | -11.7 | -0.8 | TMSB4X | 1
0 | 13.9 | 9.3 | 18.4 | TMSB4X | 2
0 | 12.3 | 17.8 | 6.8 | ZNF71 | 1
1 | 5.2 | -20.2 | 30.6 | SPATA20 | 1
